Laboratory results taken from the supplement of paper PMC10849652.
This is one part of the list.

Protein sequences, listed by entry. Tags and fused reporters are not part of them. Lines headed by an entry give the natural chain unless they say otherwise; changes in a name come on top.
UniProt Q9BZD4: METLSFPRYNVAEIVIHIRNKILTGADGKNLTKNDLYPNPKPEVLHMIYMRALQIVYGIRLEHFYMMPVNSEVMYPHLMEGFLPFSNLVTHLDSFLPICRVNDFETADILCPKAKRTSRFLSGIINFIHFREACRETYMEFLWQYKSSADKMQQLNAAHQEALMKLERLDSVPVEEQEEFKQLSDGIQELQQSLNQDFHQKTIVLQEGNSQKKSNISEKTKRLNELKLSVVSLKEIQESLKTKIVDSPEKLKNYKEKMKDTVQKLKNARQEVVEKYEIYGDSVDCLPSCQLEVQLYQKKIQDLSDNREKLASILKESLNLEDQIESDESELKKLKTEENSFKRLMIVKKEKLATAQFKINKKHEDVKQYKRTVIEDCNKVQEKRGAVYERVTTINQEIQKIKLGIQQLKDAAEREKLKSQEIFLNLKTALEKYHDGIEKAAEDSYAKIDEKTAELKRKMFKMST
UniProt Q15233: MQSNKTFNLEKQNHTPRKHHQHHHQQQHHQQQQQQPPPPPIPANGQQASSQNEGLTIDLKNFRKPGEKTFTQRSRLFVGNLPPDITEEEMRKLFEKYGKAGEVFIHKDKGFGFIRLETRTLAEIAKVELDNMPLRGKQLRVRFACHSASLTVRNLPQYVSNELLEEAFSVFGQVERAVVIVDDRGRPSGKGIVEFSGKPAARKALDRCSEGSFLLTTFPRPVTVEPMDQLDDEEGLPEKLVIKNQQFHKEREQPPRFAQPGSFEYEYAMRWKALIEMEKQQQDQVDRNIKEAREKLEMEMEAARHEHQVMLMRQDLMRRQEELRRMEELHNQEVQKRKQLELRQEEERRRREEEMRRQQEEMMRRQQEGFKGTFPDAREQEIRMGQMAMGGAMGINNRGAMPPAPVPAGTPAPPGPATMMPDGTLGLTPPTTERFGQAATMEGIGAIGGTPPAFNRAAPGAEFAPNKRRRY
UniProt Q96D46: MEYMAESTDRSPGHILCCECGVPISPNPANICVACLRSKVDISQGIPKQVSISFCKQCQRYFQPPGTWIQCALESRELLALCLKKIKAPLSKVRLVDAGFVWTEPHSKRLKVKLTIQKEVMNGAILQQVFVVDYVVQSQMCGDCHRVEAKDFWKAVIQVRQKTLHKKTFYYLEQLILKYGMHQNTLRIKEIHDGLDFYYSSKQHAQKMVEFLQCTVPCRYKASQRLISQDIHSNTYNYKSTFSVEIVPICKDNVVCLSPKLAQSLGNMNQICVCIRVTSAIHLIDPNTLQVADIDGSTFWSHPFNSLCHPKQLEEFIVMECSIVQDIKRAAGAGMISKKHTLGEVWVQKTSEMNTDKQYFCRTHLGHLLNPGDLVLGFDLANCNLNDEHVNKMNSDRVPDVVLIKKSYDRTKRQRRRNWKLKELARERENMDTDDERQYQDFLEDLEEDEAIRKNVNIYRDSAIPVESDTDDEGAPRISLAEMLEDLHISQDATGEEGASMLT
UniProt Q9BV86: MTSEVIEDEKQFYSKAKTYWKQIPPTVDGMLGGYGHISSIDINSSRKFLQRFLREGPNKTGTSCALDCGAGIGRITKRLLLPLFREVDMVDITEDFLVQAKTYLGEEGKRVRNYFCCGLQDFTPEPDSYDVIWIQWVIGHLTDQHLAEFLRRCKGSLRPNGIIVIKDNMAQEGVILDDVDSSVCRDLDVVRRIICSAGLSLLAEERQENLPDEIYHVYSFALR
UniProt Q96RS6: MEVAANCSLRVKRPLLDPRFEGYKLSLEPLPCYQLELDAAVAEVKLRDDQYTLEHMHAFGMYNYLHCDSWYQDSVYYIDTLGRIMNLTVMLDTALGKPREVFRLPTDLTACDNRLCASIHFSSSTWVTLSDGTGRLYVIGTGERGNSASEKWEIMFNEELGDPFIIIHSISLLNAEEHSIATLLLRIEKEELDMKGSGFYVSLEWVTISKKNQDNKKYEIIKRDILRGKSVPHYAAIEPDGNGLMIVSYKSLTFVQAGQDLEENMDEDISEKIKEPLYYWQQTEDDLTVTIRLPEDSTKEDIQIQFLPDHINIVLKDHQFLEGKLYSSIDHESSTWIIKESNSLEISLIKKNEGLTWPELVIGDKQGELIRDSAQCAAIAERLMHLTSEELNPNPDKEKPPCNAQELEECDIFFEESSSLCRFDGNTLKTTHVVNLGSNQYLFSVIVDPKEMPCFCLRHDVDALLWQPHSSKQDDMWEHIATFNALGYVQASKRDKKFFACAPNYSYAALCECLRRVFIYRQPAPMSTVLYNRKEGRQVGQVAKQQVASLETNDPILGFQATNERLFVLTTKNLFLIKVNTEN
UniProt Q9H8H0: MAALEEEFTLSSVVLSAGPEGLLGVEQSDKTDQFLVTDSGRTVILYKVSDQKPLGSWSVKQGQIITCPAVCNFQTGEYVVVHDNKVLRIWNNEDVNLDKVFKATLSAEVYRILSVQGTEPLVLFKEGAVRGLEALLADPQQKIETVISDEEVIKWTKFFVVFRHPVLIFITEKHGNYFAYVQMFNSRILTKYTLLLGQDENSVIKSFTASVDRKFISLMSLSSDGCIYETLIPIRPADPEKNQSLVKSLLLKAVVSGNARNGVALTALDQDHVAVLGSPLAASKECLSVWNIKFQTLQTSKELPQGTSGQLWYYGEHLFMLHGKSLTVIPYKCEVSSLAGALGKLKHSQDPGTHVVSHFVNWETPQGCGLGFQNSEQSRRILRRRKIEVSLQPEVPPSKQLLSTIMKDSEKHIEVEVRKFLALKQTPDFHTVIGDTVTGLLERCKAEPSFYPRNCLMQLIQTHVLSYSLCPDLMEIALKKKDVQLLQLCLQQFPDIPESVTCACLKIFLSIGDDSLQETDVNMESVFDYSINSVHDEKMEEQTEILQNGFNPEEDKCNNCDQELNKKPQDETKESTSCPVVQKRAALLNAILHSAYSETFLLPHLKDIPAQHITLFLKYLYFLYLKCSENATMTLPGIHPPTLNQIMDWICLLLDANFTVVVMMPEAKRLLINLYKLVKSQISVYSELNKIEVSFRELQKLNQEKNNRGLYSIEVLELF
UniProt Q5TFE4: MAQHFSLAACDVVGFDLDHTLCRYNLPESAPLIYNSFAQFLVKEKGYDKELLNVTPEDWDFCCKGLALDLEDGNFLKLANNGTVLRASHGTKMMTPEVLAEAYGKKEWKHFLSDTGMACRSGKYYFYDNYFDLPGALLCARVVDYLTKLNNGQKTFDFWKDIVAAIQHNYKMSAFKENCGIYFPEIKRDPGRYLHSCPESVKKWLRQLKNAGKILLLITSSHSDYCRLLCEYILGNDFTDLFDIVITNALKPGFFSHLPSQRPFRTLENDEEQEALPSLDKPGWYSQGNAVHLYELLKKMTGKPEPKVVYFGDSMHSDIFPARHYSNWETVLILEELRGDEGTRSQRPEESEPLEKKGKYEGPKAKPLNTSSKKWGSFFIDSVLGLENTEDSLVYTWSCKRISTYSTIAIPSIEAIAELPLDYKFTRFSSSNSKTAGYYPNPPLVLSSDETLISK
UniProt Q5SY16: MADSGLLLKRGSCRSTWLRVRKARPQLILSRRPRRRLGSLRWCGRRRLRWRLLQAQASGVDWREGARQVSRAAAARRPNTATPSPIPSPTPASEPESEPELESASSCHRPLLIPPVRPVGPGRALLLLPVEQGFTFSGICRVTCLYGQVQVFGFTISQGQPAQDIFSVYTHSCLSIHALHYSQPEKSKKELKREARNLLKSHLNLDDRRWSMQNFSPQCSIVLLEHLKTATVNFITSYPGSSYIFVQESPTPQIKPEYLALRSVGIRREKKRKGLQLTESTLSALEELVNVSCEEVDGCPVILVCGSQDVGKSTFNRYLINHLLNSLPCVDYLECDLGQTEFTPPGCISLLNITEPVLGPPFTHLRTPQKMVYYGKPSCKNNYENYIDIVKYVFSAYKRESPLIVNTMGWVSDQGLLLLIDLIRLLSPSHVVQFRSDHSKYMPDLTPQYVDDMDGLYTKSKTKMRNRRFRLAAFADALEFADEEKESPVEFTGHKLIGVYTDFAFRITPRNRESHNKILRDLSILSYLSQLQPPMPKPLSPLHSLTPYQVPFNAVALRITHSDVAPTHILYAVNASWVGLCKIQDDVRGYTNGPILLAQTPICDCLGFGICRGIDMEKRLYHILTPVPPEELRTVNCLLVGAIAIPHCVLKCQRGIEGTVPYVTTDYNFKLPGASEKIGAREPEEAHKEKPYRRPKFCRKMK

Tests used:
Test in all cases: log2 fold change, soluble protein after heating vs DMSO (PISA); higher = thermal stabilisation; K562 lysate, 10 uM; active = over 0.2 and 3.5 SD of the protein, either way, in both replicates (recomputed)
[1] = compound: NCC(=O)Nc1ccc(-n2nc(C(F)(F)F)cc2-c2ccc3c(ccc4ccccc43)c2)cc1
Outline: (§1)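 To prepare the extract, K562 pellets were dounce-homogenised in PBS pH 7.4 with 1 mM MgCl2, giving crude material at 1 mg/mL protein. This was treated with 10 μM compound for 30 min, then heated in aliquots for 3 min over 48°C-58°C before pooling and addition of NP-40 to 0.5% at 4°C. Centrifugation at 21,000xg for 90 min left soluble protein in the supernatant, which TMTpro 16plex LC-MS/MS quantified with equalised channel sums. Results are log-two fold changes in thermal stability compared with solvent controls, from duplicates.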

vorinostat = compound: O=C(CCCCCCC(=O)Nc1ccccc1)NO [vorinostat]
Outline: as §1

silmitasertib = compound: O=C(O)c1ccc2c(c1)nc(Nc1cccc(Cl)c1)c1ccncc12 [silmitasertib]
Outline: as §1

[2] = compound: O=C1NC(=O)C(c2cnc3ccccn23)=C1c1cn2c3c(cc(F)cc13)CN(C(=O)N1CCCCC1)CC2
Outline: as §1

entospletinib = compound: c1cn2cc(-c3ccc4cn[nH]c4c3)nc(Nc3ccc(N4CCOCC4)cc3)c2n1 [entospletinib]
Outline: as §1

Measured: log2 fold change

NUF2 (UniProt Q9BZD4)
active: vorinostat -0.242
inactive: [1] 0.005 | silmitasertib 0.017 | [2] 0.008 | entospletinib 0.016

NONO (UniProt Q15233)
active: vorinostat -0.355
inactive: [1] 0.013 | silmitasertib 0.027 | [2] -0.007 | entospletinib 0

NRAS (UniProt P01111)
inactive: [1] -0.049 | vorinostat 0.124 | silmitasertib -0.001 | [2] -0.011 | entospletinib -0.012

NMD3 (UniProt Q96D46)
inactive: [1] -0.003 | vorinostat -0.001 | silmitasertib 0.021 | [2] -0.004 | entospletinib 0.023

NTMT1 (UniProt Q9BV86)
active: vorinostat -0.366
inactive: [1] 0.008 | silmitasertib 0.026 | [2] 0.01 | entospletinib 0.049

NUDCD1 (UniProt Q96RS6)
inactive: [1] 0 | vorinostat -0.02 | silmitasertib 0.009 | [2] 0.012 | entospletinib 0.012

NOL11 (UniProt Q9H8H0)
inactive: [1] 0.01 | vorinostat -0.171 | silmitasertib 0.191 | [2] -0.005 | entospletinib 0.013

NT5DC1 (UniProt Q5TFE4)
inactive: [1] -0.013 | vorinostat 0.031 | silmitasertib -0.017 | [2] -0.018 | entospletinib 0.047

NOL9 (UniProt Q5SY16)
inactive: [1] -0.033 | vorinostat -0.019 | silmitasertib 0.1 | [2] 0.001 | entospletinib -0.033

2 consecutive entries out of the list so far, for reference:
NUDCD1 (UniProt Q96RS6)
inactive: [1] 0 | vorinostat -0.02 | silmitasertib 0.009 | [2] 0.012 | entospletinib 0.012

NOL11 (UniProt Q9H8H0)
inactive: [1] 0.01 | vorinostat -0.171 | silmitasertib 0.191 | [2] -0.005 | entospletinib 0.013
